At least one structure is not confirmed: it was looked up by name or label, or the drawing left a doubt.
How the values were obtained:
CTP pools = conditions: literature on tumor lines; read-out: CPE-C level achieving 50% depletion of CTP pools; cited from earlier work
[1] = system: HCV replicon RNA in Huh7 cells; test: HCV RNA levels in replicon cells over a 7-day period; format: cell-based, hepatitis C virus (HCV); conditions: seven-day assay, tested at approximately EC90 value

| SMILES | EC50 (CTP pools) [nM] | inhibition of the HCV RNA replication [1] |
| --- | --- | --- |
| Nc1ccn([C@@H]2C=C(CO)[C@@H](O)[C@H]2O)c(=O)n1 [CPE-C, cyclopentenyl-cytosine] | ~100 | – |
| O=C(O)C[C@H](NC(=O)CP(=O)(O)O)C(=O)O [PALA, N-(phosphonoacetyl)-L-aspartate] | – | very potent inhibition |
